According to patent publication US7932259B2, “Pyrrolo[2,3-d]pyrimidine derivatives substituted with a cyclic amino group” (Taisho Pharmaceutical Co., Ltd., priority 2002, dated 2011):
Some results were stated once for a whole list of compounds, not compound by compound.

These compounds were tested against T1, CRF receptor (Macaca mulatta, UniProt Q76LL8) (assay: CRF receptor binding test). Conditions: monkey amygdala membranes; 125I-CRF 0.2 nM; 25° C. for 2 hours; read-out: IC50 (concentration of the test drug at which binding of 125I-CRF is inhibited by 50%).
T1 sequence (Q76LL8 24-415): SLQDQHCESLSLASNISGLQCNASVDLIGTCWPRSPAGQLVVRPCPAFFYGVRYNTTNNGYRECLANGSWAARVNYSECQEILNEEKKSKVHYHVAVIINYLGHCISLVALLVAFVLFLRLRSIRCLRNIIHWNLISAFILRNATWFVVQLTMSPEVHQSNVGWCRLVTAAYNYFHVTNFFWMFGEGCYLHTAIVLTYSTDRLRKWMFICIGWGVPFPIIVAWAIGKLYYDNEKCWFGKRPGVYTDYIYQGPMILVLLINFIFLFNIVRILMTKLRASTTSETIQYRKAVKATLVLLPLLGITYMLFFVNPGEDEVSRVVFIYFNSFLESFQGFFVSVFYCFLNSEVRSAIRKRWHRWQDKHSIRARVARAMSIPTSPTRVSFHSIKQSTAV

IC50, ≤ 50 nM:
Cc1cc(N2CCC(CO)CC2)c2c(C)c(C)n(-c3c(Br)cc(Cl)cc3Br)c2n1 [Compound 2-041]
Cc1cc(N2CCC(CO)CC2)c2c(C)c(C)n(-c3c(C)cc(Cl)cc3C)c2n1 [Compound 2-018]
Cc1cc(N2CCC(CC#N)CC2)c2c(C)cn(-c3c(Br)cc(Br)cc3Br)c2n1 [Compound 2-115]
Cc1nc(N2CCCC(CCC#N)C2)c2c(C)cn(-c3c(C)cc(Br)cc3C)c2n1 (stereo not shown) [Compound 1-149]
Cc1nc(N2CCC(CCO)CC2)c2c(C)c(C)n(-c3c(Br)cc(Br)cc3Br)c2n1 [Compound 1-077]
Cc1nc(N2CCC(C#N)CC2)c2c(C)c(C)n(-c3c(C)cc(Br)cc3C)c2n1 [Compound 1-150]
CSc1cc(C(C)C)ccc1-n1cc(C)c2c(N3CCCC(C#N)C3)nc(C)nc21 (stereo not shown) [Compound 1-133]
Cc1cc(N2CCC(C#N)CC2)c2c(C)c(C)n(-c3cc(Br)c(Br)cc3Br)c2n1 [Compound 2-109]
Cc1nc(N2CCC(CO)CC2)c2c(C)cn(-c3ccc(Br)cc3Br)c2n1 [Compound 1-188]
Cc1nc(N2CCC(CC#N)CC2)c2c(C)cn(-c3c(Br)cc(Cl)cc3Br)c2n1 [Compound 1-235]
Cc1cc(N2CCC(CC#N)CC2)c2c(C)cn(-c3ccc(C(C)C)cc3Br)c2n1 [Compound 2-124]
Cc1nc(N2CCCC(C#N)(CO)C2)c2c(C)c(C)n(-c3c(C)cc(Br)cc3C)c2n1 (stereo not shown) [Compound 1-181]
Cc1nc(N2CCCC(CO)CC2)c2c(C)cn(-c3c(C)cc(Br)cc3C)c2n1 (stereo not shown) [Compound 1-122]
Cc1nc(N2CCC[C@H]2CO)c2c(C)c(C)n(-c3c(C)cc(Br)cc3C)c2n1 [Compound 1-117]
Cc1nc(N2CCC(C(O)CCO)CC2)c2c(C)c(C)n(-c3c(C)cc(Br)cc3C)c2n1 (stereo not shown) [Compound 1-213]
Cc1cc(N2CCC(CCCO)CC2)c2c(C)c(C)n(-c3c(C)cc(Cl)cc3C)c2n1 [Compound 2-024]
Cc1nc(N2CCC(CO)CC2)c2c(C)c(C)n(-c3c(C)cc(Br)cc3C)c2n1 [Compound 1-053]
Cc1cc(N2CCC(CO)CC2)c2c(C)c(C)n(-c3c(Br)cc(Br)cc3Br)c2n1 [Compound 2-035]
Cc1cc(N2CCC(C#N)CC2)c2c(C)cn(-c3c(Br)cc(C(C)C)cc3Br)c2n1 [Compound 2-094]
Cc1nc(N2CCC(C(O)CO)CC2)c2c(C)c(C)n(-c3c(C)cc(Br)cc3C)c2n1 (stereo not shown) [Compound 1-112]
Cc1cc(N2CCC(CC#N)CC2)c2c(C)cn(-c3ccc(C(F)(F)F)cc3Br)c2n1 [Compound 2-127]
Cc1cc(N2CCC(CCO)CC2)c2c(C)cn(-c3c(Br)cc(Br)cc3Br)c2n1 [Compound 2-055]
Cc1cc(N2CCC(CC#N)CC2)c2c(C)c(C)n(-c3ccc(Cl)cc3Cl)c2n1 [Compound 2-015]
Cc1cc(N2CCC(C(O)CO)CC2)c2c(C)cn(-c3c(C)cc(Br)cc3C)c2n1 (stereo not shown) [Compound 2-090]
COc1cc(C)c(-n2c(C)c(C)c3c(N4CCC(CO)CC4)cc(C)nc32)c(C)c1 [Compound 2-043]
CCOC(=O)OCC1CCN(c2nc(C)nc3c2c(C)cn3-c2c(C)cc(Br)cc2C)CC1 [Compound 3-001, carbonic acid 1-[7-(4-bromo-2,6-dimethyl-phenyl)-2,5-dimethyl-7H-pyrrolo[2,3-d]pyrimidin-4-yl]-piperidin-4-ylmethyl ester ethyl ester]
Cc1cc(N2CCC(CCCO)CC2)c2c(C)c(C)n(-c3c(Cl)cc(Br)cc3Cl)c2n1 [Compound 2-075]
Cc1nc(N2CCC(C#N)C2)c2c(C)c(C)n(-c3c(C)cc(Br)cc3C)c2n1 (stereo not shown) [Compound 1-176]
Cc1cc(N2CCC(CC#N)CC2)c2c(C)cn(-c3c(C)cc(Br)cc3C)c2n1 [Compound 2-031]
Cc1nc(N2CCCC(C)(CO)C2)c2c(C)c(C)n(-c3c(Br)cc(C(F)(F)F)cc3Br)c2n1 (stereo not shown) [Compound 1-103]
Cc1nc(N2CCCC(CCO)C2)c2c(C)cn(-c3c(C)cc(Br)cc3C)c2n1 (stereo not shown) [Compound 1-040]
COc1cc(C)c(-n2cc(C)c3c(N4CCC(CC#N)CC4)nc(C)nc32)c(C)c1 [Compound 1-165]
Cc1cc(N2CCC(CO)CC2)c2c(C)cn(-c3c(Br)cc(C(C)C)cc3Br)c2n1 [Compound 2-034]
Cc1nc(N2CCC(C(O)CCO)CC2)c2c(C)c(C)n(-c3c(C)cc(Br)cc3C)c2n1 (single isomer, unassigned) [Compound 1-306]
Cc1nc(N2CCC(CCCO)CC2)c2c(C)c(C)n(-c3c(C)cc(Br)cc3C)c2n1 [Compound 1-090]
Cc1cc(N2CCC(CCCO)CC2)c2c(C)cn(-c3c(Br)cc(C(C)C)cc3Br)c2n1 [Compound 2-072]
Cc1nc(N2CCC(CCCO)CC2)c2c(C)cn(-c3c(C)cc(Br)cc3C)c2n1 [Compound 1-091]
Cc1cc(N2CCCC(C#N)C2)c2c(C)cn(-c3c(C)cc(Br)cc3C)c2n1 (stereo not shown) [Compound 2-011]
Cc1nc(N2CCC(C(O)CO)CC2)c2c(C)c(C)n(-c3c(C)cc(Br)cc3C)c2n1 (single isomer, unassigned) [Compound 1-302]
CSc1cc(C(C)C)ccc1-n1c(C)c(C)c2c(N3CCCC(C#N)C3)nc(C)nc21 (stereo not shown) [Compound 1-132]
Cc1nc(N2CCC(CC#N)CC2)c2c(C)c(C)n(-c3c(Br)cc(C(C)C)cc3Br)c2n1 [Compound 1-162]
Cc1nc(N2CCCC(C#N)CC2)c2c(C)c(C)n(-c3c(C)cc(Br)cc3C)c2n1 (stereo not shown) [Compound 1-178]
Cc1cc(N2CCC(CO)CC2)c2c(C)cn(-c3cc(Br)c(Br)cc3Br)c2n1 [Compound 2-050]
Cc1cc(N2CCC(CCCO)CC2)c2c(C)c(C)n(-c3c(Br)cc(Br)cc3Br)c2n1 [Compound 2-073]
Cc1nc(N2CCC(CCCO)CC2)c2c(C)c(C)n(-c3c(Cl)cc(Br)cc3Cl)c2n1 [Compound 1-098]
CCc1cc(Br)cc(CC)c1-n1cc(C)c2c(N3CCC(CO)CC3)nc(C)nc21 [Compound 1-058]
Cc1nc(N2CCC(COC(=O)c3ccccn3)CC2)c2c(C)cn(-c3c(C)cc(Br)cc3C)c2n1 [Compound 3-004]
Cc1nc(N2CCC(C(C)O)CC2)c2c(C)c(C)n(-c3c(C)cc(Br)cc3C)c2n1 (single isomer, unassigned) [Compound 1-278]
Cc1cc(N2CCC(CCCO)CC2)c2c(C)cn(-c3c(Cl)cc(Br)cc3Cl)c2n1 [Compound 2-076]
Cc1nc(N2CCC(CO)CC2)c2c(C)c(C)n(-c3c(Br)cc(C(F)(F)F)cc3Br)c2n1 [Compound 1-052]
Cc1cc(N2CCC(C#N)CC2)c2c(C)cn(-c3c(Cl)cc(Cl)cc3Cl)c2n1 [Compound 2-100]
Cc1cc(N2CCC(CCO)CC2)c2c(C)cn(-c3cc(Br)c(Br)cc3Br)c2n1 [Compound 2-069]
Cc1cc(N2CCC(CCO)CC2)c2c(C)cn(-c3ccc(Br)cc3Br)c2n1 [Compound 2-066]
Cc1nc(N2CCCC(CC#N)C2)c2c(C)cn(-c3c(C)cc(Br)cc3C)c2n1 (stereo not shown) [Compound 1-145]
Cc1cc(N2CCC(CCCO)CC2)c2c(C)c(C)n(-c3c(Br)cc(Cl)cc3Br)c2n1 [Compound 2-079]
